# Some of the results follow.
# By UniProt entry, the sequences of proteins in these tests, tags left out.
# UniProt Q0JBA9, entry or part of it: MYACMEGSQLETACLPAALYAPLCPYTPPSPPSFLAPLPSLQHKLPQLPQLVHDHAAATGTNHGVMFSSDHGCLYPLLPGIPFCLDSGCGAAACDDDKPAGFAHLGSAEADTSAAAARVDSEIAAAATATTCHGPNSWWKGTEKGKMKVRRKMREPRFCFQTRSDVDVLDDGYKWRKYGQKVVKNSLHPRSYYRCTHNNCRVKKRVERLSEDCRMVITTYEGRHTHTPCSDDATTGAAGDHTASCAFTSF
# Biological target: OsWRKY34 (Oryza sativa, UniProt Q0JBA9 1-250)
# Assay: protein-binding microarray (RPBM); PBS, 2% BSA, 51.3 ng/ul salmon testes DNA, 50 uM zinc acetate, 200 nM TF, 25 C, 1 h; high values mean tight binding
# Details: protein: recombinant; tags: N-terminal polyhistidine and DsRed monomer fusion (pET32a); label: CyDye5-dUTP incorporated in the synthesized complementary strand; 3' TTTTT single-stranded linker to array surface; dsDNA, one strand shown
# In short: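 Per-feature fluorescence intensity (arbitrary units), read on an Axon 4000B scanner, is the binding signal. Transcription factors carrying an N-terminal polyhistidine tag and DsRed fusion were expressed in E. coli BL21-CodonPlus and purified on Ni–NTA. A custom Agilent array, made double-stranded by primer extension with Cy5-dUTP and blocked with 2% BSA, was incubated with 200 nM protein in PBS, 2% BSA, salmon testes DNA and 50 µM zinc acetate at 25 °C for 1 h and then washed.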
row,Sequence,binding signal
1,CCCCACCCAGATCTCGCCGCCCGCCCGCCCGCCCGCCATGCGGAGTCACCTAGTGCAG,8630 fluorescence intensity (a.u.)
2,ATGGAGGGAGTAGTTATTATTTTGGGATGTAGGAGGTAGTCGGAGTCACCTAGTGCAG,8700 fluorescence intensity (a.u.)
3,ACACCTCTCTCTCTCTCTCTCTCTCTCTCTCTCTCTCTCTCGGAGTCACCTAGTGCAG,11300 fluorescence intensity (a.u.)
4,AATTTATGCGTGACTTATCTTTTTAATTTTTTTCATAATTCGGAGTCACCTAGTGCAG,8110 fluorescence intensity (a.u.)
5,CCATCCTTATCTATATATGTATGCTATTGTTGCTGTTATGCGGAGTCACCTAGTGCAG,9070 fluorescence intensity (a.u.)
6,GGGATGTCTTGGCTTTTTTTTTTTCTTCACCGAGCAATCGCGGAGTCACCTAGTGCAG,13400 fluorescence intensity (a.u.)
7,GAGGTATATGTCCATTTTGTTTTTGTTAGAGTTTGTTTTTCGGAGTCACCTAGTGCAG,10700 fluorescence intensity (a.u.)
8,GAGTGTGAGTGTGGTCTGATTTTTTCTTGCAGAATCATCACGGAGTCACCTAGTGCAG,8190 fluorescence intensity (a.u.)
9,GGGAGGAGGGAGAGGAGGAGAGGAGGGAGGAGGGAGAGGACGGAGTCACCTAGTGCAG,9610 fluorescence intensity (a.u.)
10,ATATAAGTGTAGTTCTGGGTTTCATATTTTTTTTCAAATACGGAGTCACCTAGTGCAG,8130 fluorescence intensity (a.u.)
11,ACTACTACTACCCTTGCTCTGTCTGATCCAAGTCCAGGCACGGAGTCACCTAGTGCAG,8030 fluorescence intensity (a.u.)
12,CGTCCGCCGCAGATCCGATCGGTAGCAATAGCACATATCACGGAGTCACCTAGTGCAG,8500 fluorescence intensity (a.u.)
13,GGCCGTCAAATTAACCTCGATCGCCGCCAGCCAGCGACGTCGGAGTCACCTAGTGCAG,8180 fluorescence intensity (a.u.)
14,GGGGTTGGGTTGAGATTCCCCAGGCGCCCGCGGCGGCCTCCGGAGTCACCTAGTGCAG,8370 fluorescence intensity (a.u.)
15,AAATCACGTCATTGTATTGTGTTTTGAAGCTTGTTTGATCCGGAGTCACCTAGTGCAG,8480 fluorescence intensity (a.u.)
16,TTTCATTATGGCTTAACAAAGTATAATATTCCACCGCAAACGGAGTCACCTAGTGCAG,8192 fluorescence intensity (a.u.)
17,TTTGGTTAATGTTTACTCCTAATTTCTTAATTTCTAGTTTCGGAGTCACCTAGTGCAG,8500 fluorescence intensity (a.u.)
18,ATCTATCTCTATCCCTCTCTATATATTTTCTCCCTAGAACCGGAGTCACCTAGTGCAG,8350 fluorescence intensity (a.u.)
19,AAACAATGACCTTACACTCTTCGTAACCAATTTATCAGCTCGGAGTCACCTAGTGCAG,8100 fluorescence intensity (a.u.)
20,GCGCGGCGGCGGAGGCGGGGACGGCAAGGACGGGGCGCCCCGGAGTCACCTAGTGCAG,9760 fluorescence intensity (a.u.)
21,TATCGATTTCTCCTTCTTGCCATCCAATATGATTTTAGATCGGAGTCACCTAGTGCAG,10300 fluorescence intensity (a.u.)
22,AATCCCGAAGACTTGGATAGAGTGGTTTTGCGTTGGTTGTCGGAGTCACCTAGTGCAG,8540 fluorescence intensity (a.u.)
23,ACACTTCCTTTTTTGTTTTTCTCTTTTCCTTTCACGTTGTCGGAGTCACCTAGTGCAG,8880 fluorescence intensity (a.u.)

# 2 entries from above in a different format.
row | Sequence | binding signal
5 | CCATCCTTATCTATATATGTATGCTATTGTTGCTGTTATGCGGAGTCACCTAGTGCAG | 9070 fluorescence intensity (a.u.)
6 | GGGATGTCTTGGCTTTTTTTTTTTCTTCACCGAGCAATCGCGGAGTCACCTAGTGCAG | 13400 fluorescence intensity (a.u.)

# Reference: PMC7819943, “Rice protein-binding microarrays: a tool to detect cis-acting elements near promoter regions in rice”
